The target of this experiment is FLAG-HA-tagged PTEN (UniProt P60484). Briefly: affinity purification with mass spectrometry; HeLa cells stably expressing FLAG-HA-PTEN or empty vector; nocodazole 100 nM 8 h (methods) or 8 h release from double thymidine block; nuclear fractions; sequential anti-FLAG M2 and anti-HA agarose, peptide elution; 125 kDa band analysed by MS.

Protein sequences, listed by entry. Tags and fused reporters are not part of them.
UniProt P60484: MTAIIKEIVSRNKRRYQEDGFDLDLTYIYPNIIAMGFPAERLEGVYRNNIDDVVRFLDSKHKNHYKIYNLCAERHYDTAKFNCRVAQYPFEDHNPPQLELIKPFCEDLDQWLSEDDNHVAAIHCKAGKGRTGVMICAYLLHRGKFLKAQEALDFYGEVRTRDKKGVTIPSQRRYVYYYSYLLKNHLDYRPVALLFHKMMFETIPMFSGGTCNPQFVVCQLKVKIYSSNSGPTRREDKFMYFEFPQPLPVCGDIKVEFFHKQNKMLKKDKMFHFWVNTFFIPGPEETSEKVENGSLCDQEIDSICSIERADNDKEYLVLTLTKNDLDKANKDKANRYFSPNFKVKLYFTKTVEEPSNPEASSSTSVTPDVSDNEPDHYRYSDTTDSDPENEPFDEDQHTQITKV
UniProt P52732: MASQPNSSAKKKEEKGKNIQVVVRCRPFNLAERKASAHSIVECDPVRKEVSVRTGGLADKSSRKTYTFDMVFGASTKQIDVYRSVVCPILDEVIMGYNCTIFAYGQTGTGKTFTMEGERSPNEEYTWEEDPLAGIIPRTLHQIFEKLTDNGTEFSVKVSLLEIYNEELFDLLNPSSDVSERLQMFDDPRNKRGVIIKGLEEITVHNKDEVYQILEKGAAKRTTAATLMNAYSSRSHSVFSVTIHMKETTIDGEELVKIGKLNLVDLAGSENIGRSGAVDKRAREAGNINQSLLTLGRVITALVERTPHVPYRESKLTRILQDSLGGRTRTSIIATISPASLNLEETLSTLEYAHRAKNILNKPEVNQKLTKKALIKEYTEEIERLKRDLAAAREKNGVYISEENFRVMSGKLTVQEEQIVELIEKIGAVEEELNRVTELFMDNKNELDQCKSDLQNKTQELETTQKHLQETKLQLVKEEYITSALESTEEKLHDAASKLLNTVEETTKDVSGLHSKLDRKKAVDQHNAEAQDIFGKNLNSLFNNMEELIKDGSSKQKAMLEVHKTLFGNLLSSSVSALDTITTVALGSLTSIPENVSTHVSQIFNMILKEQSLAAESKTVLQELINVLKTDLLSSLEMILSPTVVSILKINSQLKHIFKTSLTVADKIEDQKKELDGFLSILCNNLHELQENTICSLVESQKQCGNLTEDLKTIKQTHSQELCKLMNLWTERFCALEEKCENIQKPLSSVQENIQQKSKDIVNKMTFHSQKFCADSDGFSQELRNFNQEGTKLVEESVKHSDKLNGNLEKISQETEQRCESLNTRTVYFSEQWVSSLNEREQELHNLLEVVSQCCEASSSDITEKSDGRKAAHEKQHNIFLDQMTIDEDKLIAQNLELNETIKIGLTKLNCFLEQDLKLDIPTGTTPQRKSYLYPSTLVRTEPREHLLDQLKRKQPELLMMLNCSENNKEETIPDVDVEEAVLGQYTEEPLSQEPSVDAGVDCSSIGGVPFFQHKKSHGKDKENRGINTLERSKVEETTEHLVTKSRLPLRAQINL

From publication PMC4980451 come the findings set out here.

These are yes or no findings as the source states them, for the method shown. Binding seen in cells or lysates may run through a third protein. Here binding means that the protein was enriched with, or labelled near, the bait; the list need not be complete.

On to “EG5 (endogenous, HeLa) (from UniProt P52732 1-1056)”, for which the binding entry was “binds”.
